Measured values taken from patent EP4745151A1 (Jiangsu Hengrui Pharmaceuticals Co., Ltd., priority 2023, dated 2025).
Strings that start with PEPTIDE1 are HELM notation: dots part the residues, brackets hold end groups and non-standard residues.

Experiment: general procedure: Fmoc solid-phase peptide synthesis; Wang resin (degree of substitution = 1.08 mmol/g); DIC/HOBT
Settings: conjugation step

Substance	final purity (method not given) [%]
PEPTIDE1{[Hex].C.[Aib].P.[4R-OH-Pro].T.Q.[2-F-Phe].C}|CHEM1{[tMeBn(DOTA-AET)]}$PEPTIDE1,CHEM1,2:R3-1:R1|PEPTIDE1,CHEM1,9:R3-1:R2$$$V2.0	96.9
PEPTIDE1{[Hex].C.[Aib].P.[4R-OH-Pro].T.Q.F.C}|CHEM1{[tMeBn(DOTA-AET)]}$PEPTIDE1,CHEM1,2:R3-1:R1|PEPTIDE1,CHEM1,9:R3-1:R2$$$V2.0	97.8
PEPTIDE1{[Hex].C.[Aib].P.[4R-OH-Pro].T.Q.F.C}|CHEM1{[tMeBn(NOTA-AET)]}$PEPTIDE1,CHEM1,2:R3-1:R1|PEPTIDE1,CHEM1,9:R3-1:R2$$$V2.0	97.20
PEPTIDE1{[Hex].C.[Aib].P.[4R-OH-Pro].T.Q.[2-CF3-Phe].C}|CHEM1{[tMeBn(DOTA-AET)]}$PEPTIDE1,CHEM1,2:R3-1:R1|PEPTIDE1,CHEM1,9:R3-1:R2$$$V2.0	98.9
PEPTIDE1{[Hex].C.[Aib].P.[4R-OH-Pro].T.Q.[2-F-Phe].C}|CHEM1{[tMeBn(NOTA-AET)]}$PEPTIDE1,CHEM1,2:R3-1:R1|PEPTIDE1,CHEM1,9:R3-1:R2$$$V2.0	99.2
